Measured values: PMC6942356
Results are given in words; binding and its absence hold for the method and conditions named. In cells and extracts the contact can be indirect. Some binding calls cover weakened binding; strength is not graded here.

Assays:
[1] = target: T1, TSPAN9 (WT), transfected (UniProt O75954); test: co-IP; AGS cells transfected with TSPAN9 (WT) or TSPAN9 (Y153D); lysates immunoprecipitated with antibodies to p55 and TSPAN9, Western blot
T1 sequence: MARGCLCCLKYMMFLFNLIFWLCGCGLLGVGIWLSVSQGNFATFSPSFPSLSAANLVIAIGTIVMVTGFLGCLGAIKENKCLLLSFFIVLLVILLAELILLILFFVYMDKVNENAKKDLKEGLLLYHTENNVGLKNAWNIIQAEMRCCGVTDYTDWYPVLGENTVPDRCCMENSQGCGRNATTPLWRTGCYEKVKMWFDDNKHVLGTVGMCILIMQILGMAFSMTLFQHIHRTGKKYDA

[2] = target: T2, TSPAN9 (endogenous, 5-FU-resistant gastric cancer cells) (human (endogenous in AGS/R)) (UniProt O75954); test: co-IP; lysates of AGS/R cells stimulated with 5-FU; immunoprecipitation with anti-TSPAN9 on Protein A agarose, immunoblot with anti-p55; endogenous proteins
T2 sequence: T1 sequence

binding [1]: binds
binding [2]: binds
Substance: PIK3R3 (p55), regulatory subunit of PI3K (from UniProt Q92569 1-461)
